PubChem BioAssay AID602196, INSERM, 2012
The whole screen tested about 23,000 reagents; this is an unselected part. Of all reagents, 455 (2%) were called active. 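Active includes both protection and sensitisation; some change values fall well beyond the stated -50 to +50 range.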 Further read-outs or replicates are left out here. The record does not give: the amount of reagent.

Screen: 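Genes whose knock-down alters cisplatin killing of lung cancer cells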
Cells: human A549 lung cancer cells
Knock-down reagent: siRNA pair against human genes
Time to read-out: 48 h transfection before cisplatin; time from cisplatin to read-out not stated
Conditions: cisplatin at a dose killing half of control-siRNA cells; exact dose and duration not given
Detection: 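Shift in cisplatin death relative to control siRNA, from -50 (all cells die) to +50 (no cells die); siRNAs harmful on their own scored 0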
Direction: two-siRNA summed score (-2 to +2): higher = both siRNAs protect from cisplatin killing; -2 means both sensitise; mean protection from cisplatin (shift in death): higher = protection from cisplatin killing
Active means: 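Each siRNA scores 0 if harmful alone by LDH or WST-1, otherwise +1 if it reduces and -1 if it increases cisplatin killing; a gene is active when both siRNAs agree (sum +2 or -2)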
Calls: active = both siRNAs shift cisplatin killing the same way; inactive = no consistent shift, or siRNA harmful alone

What is on record for TUBA1C?
two-siRNA summed score (-2 to +2): 0; mean protection from cisplatin (shift in death) (%): 2.7; outcome: inactive

With PXN, what was measured?
two-siRNA summed score (-2 to +2): 0; mean protection from cisplatin (shift in death) (%): -3.6; outcome: inactive

What is on record for LOC390234?
two-siRNA summed score (-2 to +2): 0; mean protection from cisplatin (shift in death) (%): 20.5; outcome: inactive

For OR6K2, what does the deposit list?
two-siRNA summed score (-2 to +2): 0; mean protection from cisplatin (shift in death) (%): 7.2; outcome: inactive

What did the screen give for ADD3?
two-siRNA summed score (-2 to +2): 1; mean protection from cisplatin (shift in death) (%): 9.3; outcome: inactive

What did the screen give for LOC391667?
two-siRNA summed score (-2 to +2): 1; mean protection from cisplatin (shift in death) (%): 22.8; outcome: inactive

With TOR2A, what was measured?
two-siRNA summed score (-2 to +2): 0; mean protection from cisplatin (shift in death) (%): 11.4; outcome: inactive

What did the screen give for RBM41?
two-siRNA summed score (-2 to +2): 0; mean protection from cisplatin (shift in death) (%): -1.5; outcome: inactive

Which result is listed for GATA3?
two-siRNA summed score (-2 to +2): 0; mean protection from cisplatin (shift in death) (%): 6; outcome: inactive

What is on record for S100A4?
two-siRNA summed score (-2 to +2): 0; mean protection from cisplatin (shift in death) (%): 4.5; outcome: inactive

How did the screen score NET1?
two-siRNA summed score (-2 to +2): 0; mean protection from cisplatin (shift in death) (%): 2; outcome: inactive

What is on record for C4orf36?
two-siRNA summed score (-2 to +2): 1; mean protection from cisplatin (shift in death) (%): 10.3; outcome: inactive

How did the screen score LOC388129?
two-siRNA summed score (-2 to +2): 0; mean protection from cisplatin (shift in death) (%): 12.1; outcome: inactive

What is on record for LOC440835?
two-siRNA summed score (-2 to +2): 0; mean protection from cisplatin (shift in death) (%): 5.5; outcome: inactive

For LYPD6, what was measured?
two-siRNA summed score (-2 to +2): 0; mean protection from cisplatin (shift in death) (%): 3.3; outcome: inactive

How did the screen score CHD1L?
two-siRNA summed score (-2 to +2): 0; mean protection from cisplatin (shift in death) (%): 4.3; outcome: inactive

What did the screen give for NPR2?
two-siRNA summed score (-2 to +2): 0; mean protection from cisplatin (shift in death) (%): -6.8; outcome: inactive

With CALR3, what does the deposit list?
two-siRNA summed score (-2 to +2): -1; mean protection from cisplatin (shift in death) (%): -3.8; outcome: inactive

For BBOX1, what was measured?
two-siRNA summed score (-2 to +2): 0; mean protection from cisplatin (shift in death) (%): 3.9; outcome: inactive

What is on record for CACNA1I?
two-siRNA summed score (-2 to +2): 0; mean protection from cisplatin (shift in death) (%): -0.4; outcome: inactive

What is on record for GOLGA6L9?
two-siRNA summed score (-2 to +2): 0; mean protection from cisplatin (shift in death) (%): 2.9; outcome: inactive

In a second layout: 3 of the entries above.
LOC390234
- two-siRNA summed score (-2 to +2): 0
- mean protection from cisplatin (shift in death) (%): 20.5
- outcome: inactive

OR6K2
- two-siRNA summed score (-2 to +2): 0
- mean protection from cisplatin (shift in death) (%): 7.2
- outcome: inactive

ADD3
- two-siRNA summed score (-2 to +2): 1
- mean protection from cisplatin (shift in death) (%): 9.3
- outcome: inactive
